Experimental data: PMC12836620
No constants are given. Whether binding was seen depends on the method and setting. In cells and extracts the contact can be indirect. Some entries that bind do so weakly or less than the wild type.

Chains of the proteins cited; added tags and fusions are not shown. Lines headed by an entry give the natural chain unless they say otherwise; changes in a name come on top.
UniProt Q9Y2I1: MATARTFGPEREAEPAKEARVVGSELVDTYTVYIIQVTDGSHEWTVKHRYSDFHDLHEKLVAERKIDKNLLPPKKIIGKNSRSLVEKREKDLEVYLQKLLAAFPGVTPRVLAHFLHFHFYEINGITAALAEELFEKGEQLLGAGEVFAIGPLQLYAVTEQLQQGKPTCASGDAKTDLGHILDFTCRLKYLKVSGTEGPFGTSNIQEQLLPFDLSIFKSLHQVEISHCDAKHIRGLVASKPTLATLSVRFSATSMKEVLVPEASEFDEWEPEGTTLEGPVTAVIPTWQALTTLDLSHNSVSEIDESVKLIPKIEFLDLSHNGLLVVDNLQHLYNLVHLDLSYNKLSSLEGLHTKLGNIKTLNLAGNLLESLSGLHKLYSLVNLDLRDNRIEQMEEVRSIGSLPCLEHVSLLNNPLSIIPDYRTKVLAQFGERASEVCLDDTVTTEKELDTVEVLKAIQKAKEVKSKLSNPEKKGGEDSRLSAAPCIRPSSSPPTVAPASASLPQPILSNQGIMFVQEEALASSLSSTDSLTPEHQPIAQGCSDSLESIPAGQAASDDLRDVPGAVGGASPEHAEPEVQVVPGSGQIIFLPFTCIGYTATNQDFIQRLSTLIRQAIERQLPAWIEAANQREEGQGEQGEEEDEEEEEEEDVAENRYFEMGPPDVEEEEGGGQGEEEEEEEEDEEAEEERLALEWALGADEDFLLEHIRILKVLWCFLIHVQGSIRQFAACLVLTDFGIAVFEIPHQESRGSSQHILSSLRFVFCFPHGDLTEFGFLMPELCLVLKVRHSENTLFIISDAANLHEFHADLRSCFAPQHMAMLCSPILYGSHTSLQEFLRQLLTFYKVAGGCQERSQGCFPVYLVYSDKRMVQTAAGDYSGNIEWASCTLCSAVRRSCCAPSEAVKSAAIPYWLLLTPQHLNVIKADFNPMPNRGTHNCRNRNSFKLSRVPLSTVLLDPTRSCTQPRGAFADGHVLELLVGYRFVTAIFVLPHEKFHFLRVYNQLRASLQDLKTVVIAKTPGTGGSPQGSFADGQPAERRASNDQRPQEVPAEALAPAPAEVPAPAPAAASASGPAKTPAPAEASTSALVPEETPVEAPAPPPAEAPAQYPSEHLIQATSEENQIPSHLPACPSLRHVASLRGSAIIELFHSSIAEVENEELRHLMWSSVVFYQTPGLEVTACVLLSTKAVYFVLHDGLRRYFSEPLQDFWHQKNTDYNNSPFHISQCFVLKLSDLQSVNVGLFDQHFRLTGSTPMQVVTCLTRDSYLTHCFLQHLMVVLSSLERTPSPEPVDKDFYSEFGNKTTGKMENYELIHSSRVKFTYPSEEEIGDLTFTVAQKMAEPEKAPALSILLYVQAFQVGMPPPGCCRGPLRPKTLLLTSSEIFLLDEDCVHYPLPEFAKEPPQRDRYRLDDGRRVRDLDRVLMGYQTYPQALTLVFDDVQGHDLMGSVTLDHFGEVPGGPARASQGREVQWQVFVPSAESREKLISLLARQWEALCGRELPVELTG
UniProt Q13153: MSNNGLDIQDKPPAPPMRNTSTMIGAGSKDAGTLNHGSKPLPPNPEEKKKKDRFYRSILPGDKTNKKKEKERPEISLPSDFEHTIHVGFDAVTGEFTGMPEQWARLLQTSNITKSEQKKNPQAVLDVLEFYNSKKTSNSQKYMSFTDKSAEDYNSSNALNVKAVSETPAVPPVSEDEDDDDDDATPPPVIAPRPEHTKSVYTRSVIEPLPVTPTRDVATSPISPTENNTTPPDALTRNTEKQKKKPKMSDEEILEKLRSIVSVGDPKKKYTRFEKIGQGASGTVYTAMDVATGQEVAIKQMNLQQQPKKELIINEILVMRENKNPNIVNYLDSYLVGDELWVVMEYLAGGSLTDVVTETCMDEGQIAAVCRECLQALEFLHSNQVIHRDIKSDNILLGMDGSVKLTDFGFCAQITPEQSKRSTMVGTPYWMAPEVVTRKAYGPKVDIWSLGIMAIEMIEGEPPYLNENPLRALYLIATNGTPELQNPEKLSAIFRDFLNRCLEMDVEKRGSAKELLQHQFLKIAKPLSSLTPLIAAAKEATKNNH

Columns and labels:
[1] = target: Nischarin (NISCH) C185S, full-length, FLAG-tagged (human) (UniProt Q9Y2I1); test: proximity ligation; cells expressing NISCH WT or C185S, low glucose (LG); Fig. S7; methods not shown
[2] = target: Nischarin (NISCH) C185S, full-length, FLAG-tagged (human) (UniProt Q9Y2I1); test: co-IP; FLAG-NISCH WT or C185S transfected in MDA-MB-231; cells in 25 mM (HG) or 5 mM (LG) glucose (24 h in the methods, 16 h in the legend); lysis in Tris pH 8, 150 mM NaCl, 1 % NP-40; 1 mg lysate with FLAG antibody and protein G agarose at 4 °C; blots for PAK1, Rac1/Cdc42 and integrin α5

- binding [1]: binds
- binding [2]: binds
Substance: PAK1 (from UniProt Q13153 1-545)
